This passage reports Log2FoldChange results from publication PMC10443802 (JCI Insight, 2023).

This data set concerns OATP1B2. Kind of data set: Untargeted metabolomics of plasma and DRG, WT vs OATP1B2-deficient mice. It counts as in vivo, mouse.
Where [1] appears, read: untargeted metabolomics, WT vs OATP1B2-deficient mice, supplement sheet "Figure 5B" (volcano plot).
Setting [2] is: untargeted metabolomics, sheet "Figure 5C", WT vs OATP1B2-deficient mice.
Setting [3] is: Figure 5B source data (volcano plot), untargeted metabolomics, WT vs OATP1B2-deficient mice, log2 fold change of metabolite level.
[4] abbreviates: untargeted metabolomics, WT vs OATP1B2-deficient mice, supplement sheet "Figure 5B".

“And” between values parts separate entries of the source, which are not always exact repeats. Identical values can stand only once. Counter-ions that a name gives are not always drawn. Where a SMILES comes first, the peptide text is derived from it. [ ]: non-standard residue; d: D form. Hyp = O=C(O)[CH]1C[CH](O)CN1

On to `CCCCCCCCCCCCCCC(=O)O[C@H](CC(=O)[O-])C[N+](C)(C)C` [pentadecanoylcarnitine (C15)*], for which the Log2FoldChange is, setting by setting: under setting [1], 0.8237; under setting [2], -0.1681.

`O=S(=O)(O)C(F)(F)C(F)(F)C(F)(F)C(F)(F)C(F)(F)C(F)(F)C(F)(F)C(F)(F)F` [perfluorooctanesulfonate (PFOS)]: the Log2FoldChange under setting [3] is -1.358.

Where the note is “mouse, in vivo”, `O=C(O)[C@H]1O[C@@H](Oc2ccccc2)[C@H](O)[C@@H](O)[C@@H]1O` [phenol glucuronide] gave a Log2FoldChange of 0.903.

On to `O=S(=O)(O)Oc1ccccc1` [phenol sulfate], for which the Log2FoldChange (mouse, in vivo) was 0.4854 and 0.585.

In turn, `O=C(O)Cc1ccccc1` [phenylacetate] returned a Log2FoldChange under setting [1] of 0.4751.

As for `C[N+](C)(C)CC(CC(=O)[O-])OC(=O)Cc1ccccc1` (stereo not drawn) [phenylacetylcarnitine], the Log2FoldChange under setting [1] is given as 0.7485.

On to `O=C(O)CC[C@H](NC(=O)Cc1ccccc1)C(=O)O` [phenylacetylglutamate], for which, under setting [1], the Log2FoldChange was 0.546.

As for `O=C(O)CNC(=O)Cc1ccccc1` [phenylacetylglycine], the Log2FoldChange is, setting by setting: under setting [1], 0.3219; under setting [2], 0.546.

As for `O=C(Cc1ccccc1)NCCS(=O)(=O)O` [phenylacetyltaurine], the Log2FoldChange under setting [1] worked out at 0.4005.

On to `N[C@@H](Cc1ccccc1)C(=O)O` [phenylalanine], for which the Log2FoldChange under setting [2] is recorded as 0.09761.

`O=C(O)C(O)Cc1ccccc1` (stereo not drawn) [phenyllactate (PLA)] came in with a Log2FoldChange under setting [4] of 0.1375.

`O=C(O)CNC(=O)CCc1ccccc1` [phenylpropionylglycine] registered a Log2FoldChange under setting [1] of 1.269.

`O=C(O)C(=O)Cc1ccccc1` [phenylpyruvate]: the Log2FoldChange reads like this: under setting [3], -0.5146; under setting [2], 0.3896.

Turning to `C=C(OP(=O)(O)O)C(=O)O` [phosphoenolpyruvate (PEP)], the Log2FoldChange was 0.02857 under setting [4] and -0.454 under setting [2].

As to `NCCOP(=O)(O)O` [phosphoethanolamine], the Log2FoldChange is, setting by setting: under setting [4], 0.2016; under setting [2], 0.111.

Compound `CC(C)(COP(=O)(O)O)[C@@H](O)C(=O)NCCC(=O)NCCS` [phosphopantetheine] came in with a Log2FoldChange under setting [2] of 0.3896.

Turning to `CC(C)CCC[C@@H](C)CCC[C@@H](C)CCCC(C)CC(=O)O` (stereo partly drawn) [phytanate], the Log2FoldChange under setting [3] is recorded as -0.8625.

Compound `CCCCCCCCCCCCCC[C@@H](O)[C@@H](O)[C@@H](N)CO` [phytosphingosine] had a Log2FoldChange under setting [2] of 0.275.

Regarding `O=C(O)c1ccccn1` [picolinate], the Log2FoldChange under setting [4] is recorded as 0.08406.

Turning to `O=C(O)CCCCCC(=O)O` [pimelate (C7-DC)], the Log2FoldChange under setting [3] is -0.4344 and the Log2FoldChange under setting [2] is reported as -0.074.

For the compound `O=C(O)C1CCCCN1` (stereo not drawn) [pipecolate], the Log2FoldChange under setting [2] is reported as 0.2016.

As to `O=C(O)C1CC(O)CN1C(=O)C1CCCN1` (stereo not drawn) [pro-hydroxy-pro] (H-Pro-[Hyp]-OH; configuration not given here), the Log2FoldChange under setting [4] was determined as 0.05658 and the Log2FoldChange under setting [2] turned out to be 0.02857.

With `O=C(O)[C@@H]1CCCN1` [proline], the Log2FoldChange stood at 0.02857 under setting [4] and 0.1763 under setting [2].

On to `O=C(O)CNC(=O)[C@@H]1CCCN1` [prolylglycine] (H-Pro-Gly-OH), for which the Log2FoldChange under setting [2] is 0.263.

Take `CCC(=O)OC(CC(=O)[O-])C[N+](C)(C)C` (stereo not drawn) [propionylcarnitine (C3)]: the Log2FoldChange reads like this: under setting [4], 0.09761; under setting [2], 0.3896.

As for `CCC(=O)NCC(=O)O` [propionylglycine], the Log2FoldChange under setting [1] amounted to 0.4854.

For `O=c1[nH]cc([C@@H]2O[C@H](CO)[C@@H](O)[C@H]2O)c(=O)[nH]1` [pseudouridine], the Log2FoldChange is, setting by setting: under setting [4], 0.1763; under setting [2], 0.263.

As for `NCCCCN` [putrescine], the Log2FoldChange runs as follows: under setting [1], 0.263; under setting [2], 0.3561.

Turning to `Cc1ncc(CO)c(C=O)c1O` [pyridoxal], the Log2FoldChange was found to be 0.5558 under setting [1] and 0.189 under setting [2].

As for `Cc1ncc(CO)c(CN)c1O` [pyridoxamine], the Log2FoldChange under setting [1] stood at 0.8237.

`Cc1ncc(CO)c(C(=O)O)c1O` [pyridoxate]: the Log2FoldChange is 0.4222 under setting [1] and 0.7049 under setting [2].

Turning to `CC(=O)C(=O)O` [pyruvate], the Log2FoldChange runs as follows: under setting [3], -0.2176; under setting [2], 0.05658.

Regarding `Nc1nc2[nH]cc(CN[C@H]3C=C[C@H](O)[C@@H]3O)c2c(=O)[nH]1` [queuine], the Log2FoldChange under setting [2] is listed as 0.3674.

Turning to `O=C(O)c1cccnc1C(=O)O` [quinolinate], the Log2FoldChange under setting [1] is on record as 0.4005.

Under setting [1], `CC1=C(/C=C/C(C)=C/C=C/C(C)=C/CO)C(C)(C)CCC1` [retinol (Vitamin A)] came in with a Log2FoldChange of 0.5656.

As to `OC[C@@H](O)[C@@H](O)[C@@H](O)CO` [ribitol], the Log2FoldChange reads like this: under setting [4], 0.1375; under setting [2], 0.3219.

The compound `Cc1cc2nc3c(=O)[nH]c(=O)nc-3n(C[C@H](O)[C@H](O)[C@H](O)CO)c2cc1C` [riboflavin (Vitamin B2)] yielded a Log2FoldChange under setting [1] of 0.3448 and a Log2FoldChange under setting [2] of 0.05658.

`O=C(O)[C@H](O)[C@H](O)[C@H](O)CO` [ribonate]: the Log2FoldChange was -0.2863 under setting [3] and 0.3103 under setting [2].

Under setting [2], `O=P(O)(O)O[C@H]1O[C@H](CO)[C@@H](O)[C@H]1O` [ribose 1-phosphate] yielded a Log2FoldChange of 0.3334.

`N[C@@H](CCCCN[C@@H](CCC(=O)O)C(=O)O)C(=O)O` [saccharopine] displayed a Log2FoldChange under setting [2] of -0.152.

Compound `CNCC(=O)O` [sarcosine] returned a Log2FoldChange under setting [1] of 0.4647.

Regarding `O=C(O)CCCCCCCCC(=O)O` [sebacate (C10-DC)], under setting [1], the Log2FoldChange came to 0.5261.

For `O=C(CO)[C@@H](O)[C@H](O)[C@H](O)[C@H](O)COP(=O)(O)O` [sedoheptulose-7-phosphate], the Log2FoldChange under setting [2] is recorded as 0.111.

Under setting [2], `O=C(CO)[C@@H](O)[C@H](O)[C@H](O)[C@H](O)CO` [sedoheptulose] displayed a Log2FoldChange of 0.08406.

`NCCc1c[nH]c2ccc(O)cc12` [serotonin]: the Log2FoldChange under setting [1] was 0.3219.

For `NCCCCNCCCN` [spermidine], the Log2FoldChange is listed as 0.5361 under setting [1] and 0.275 under setting [2].

In the case of `NCCCNCCCCNCCCN` [spermine], the Log2FoldChange under setting [1] worked out at 0.3674 and the Log2FoldChange under setting [2] is -0.1361.

As to `CCCCCCCCC/C=C/CC/C=C/[C@@H](O)[C@@H](N)CO` [sphingadienine], the Log2FoldChange under setting [1] is reported as 0.6781 and the Log2FoldChange under setting [2] turned out to be 0.3448.

As to `CCCCCCCCCCCCCCC[C@@H](O)[C@@H](N)COP(=O)(O)O` [sphinganine-1-phosphate], the Log2FoldChange under setting [3] was -0.2515.

In the case of `CCCCCCCCCCCCCCC[C@@H](O)[C@@H](N)CO` [sphinganine], the Log2FoldChange under setting [2] came out at 0.

As to `CCCCCCCCCCCCC/C=C/[C@@H](O)[C@@H](N)COP(=O)(O)O` [sphingosine 1-phosphate], the Log2FoldChange under setting [3] is -0.1844.

Compound `CCCCCCCCCCCCC/C=C/[C@@H](O)[C@@H](N)CO` [sphingosine] displayed a Log2FoldChange under setting [1] of 0.3561 and a Log2FoldChange under setting [2] of 0.1375.

For the compound `C[N+]1(C)CCC[C@H]1C(=O)[O-]` [stachydrine], the Log2FoldChange (mouse, in vivo) is 0.3674 and 0.546.

In the case of `CCCCCCCCCCCCCCCCCC(N)=O` [stearamide (18:0)], the Log2FoldChange under setting [1] amounted to 0.5753.

For `CCCCCCCCCCCCCCCCCC(=O)O` [stearate (18:0)], the Log2FoldChange is -0.2009 under setting [3] and 0 under setting [2].

`CC/C=C\C/C=C\C/C=C\C/C=C\CCCCC(=O)O` [stearidonate (18:4n3)]: the Log2FoldChange reads like this: under setting [3], -0.3219; under setting [2], 0.02857.

Under setting [2], `CCCCCCCCCCCCC/C=C/[C@@H](O)[C@H](COP(=O)([O-])OCC[N+](C)(C)C)NC(=O)CCCCCCCCCCCCCCCCC` [stearoyl sphingomyelin (d18:1/18:0)] returned a Log2FoldChange of -0.2863.

In turn, `CCCCCCCCCCCCCCCCCC(=O)O[C@H](CC(=O)[O-])C[N+](C)(C)C` [stearoylcarnitine (C18)] returned a Log2FoldChange under setting [2] of 0.08406.

Turning to `CCCCCCCCCCCCCCCCCC(=O)OCC[N+](C)(C)C` [stearoylcholine*], the Log2FoldChange under setting [4] is on record as -0.152.

For `O=C(O)CCCCCCC(=O)O` [suberate (C8-DC)], under setting [4], the Log2FoldChange is recorded as -0.0145.

Regarding `C[N+](C)(C)C[C@@H](CC(=O)[O-])OC(=O)CCC(=O)O` [succinylcarnitine (C4-DC)], the Log2FoldChange is, setting by setting: under setting [1], 0.6508; under setting [2], -0.3219.

On to `O=S(=O)(O)O` [sulfate*], for which the Log2FoldChange under setting [4] stood at 0.05658.

As for `O=C(O)C(O)C(=O)O` [tartronate (hydroxymalonate)], the Log2FoldChange under setting [2] is on record as 0.02857.

`NCCS(=O)(=O)O` [taurine] returned a Log2FoldChange under setting [4] of 0.05658.

Under setting [1], `C[C@H](CCC(=O)NCCS(=O)(=O)O)[C@H]1CC[C@H]2[C@@H]3CC[C@@H]4C[C@H](O)CC[C@]4(C)[C@H]3C[C@H](O)[C@]12C` [taurodeoxycholate] showed a Log2FoldChange of 1.7866.

`CC(CCC(=O)NCCS(=O)(=O)O)C1CCC2C3CCC4CC(OS(=O)(=O)O)CCC4(C)C3CC(O)C12C` (stereo not drawn) [taurodeoxycholic acid 3-sulfate] yielded a Log2FoldChange under setting [1] of 0.6599.

`C[C@H](CCC(=O)NCCS(=O)(=O)O)[C@H]1CC[C@H]2[C@@H]3C[C@H](O)[C@@H]4C[C@H](O)CC[C@]4(C)[C@H]3CC[C@]12C` [taurohyodeoxycholic acid] showed a Log2FoldChange under setting [1] of 1.281.

Consider `C[C@H](CCC(=O)NCCS(=O)(=O)O)[C@H]1CC[C@H]2[C@@H]3CC[C@@H]4C[C@H](OS(=O)(=O)O)CC[C@]4(C)[C@H]3CC[C@]12C` [taurolithocholate 3-sulfate], for which the Log2FoldChange under setting [1] was 1.17.

`O=C(O)CCCCCCCCCCCCC(=O)O` [tetradecanedioate (C14-DC)] showed a Log2FoldChange under setting [1] of 2.094.
